Data source: PubChem BioAssay AID1508597 (Cure First, 2020)

Test: 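Genes whose silencing sensitises or protects ovarian cancer cells against rucaparib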 (primary screen)
System: human ovarian carcinoma lines grown from tumours: OCI-P5x (papillary serous) and OCI-C5x (clear cell)
Reagent: siRNA pool against human genes, 1.25 pmol siRNA per well
Time to read-out: 72 h or 96 h, depending on the cell culture
Challenge: rucaparib 20 µM (about IC30) or vehicle, present until read-out
Rucaparib or vehicle: Vehicle
Cell line: OCI-P5x (serous)
Measurement: 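ATP luminescence measured at 72 or 96 h according to the culture, then normalised and expressed as percent viability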
Scale: viability, normalised: higher = more viable cells remaining
Rule for the call: 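a well counts as a hit if its normalised viability is under 80 percent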
Meaning of the calls: active = viability under 80%; inactive = viability 80% or more
This is a random part of the about 2,100 reagents, under one of the conditions tested. 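Calls flag viability under 80% in either arm, not effects specific to rucaparib; the reference for percent is not stated.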 Entries without a mark were called inactive. Some reagents were tested in more than one well and are listed for each. Not given: the 100% reference.

gene	technical replicate	viability, normalised (%)
BRCA1	1	57.7 (active)
BRCA1	1	66.2 (active)
BRCA1	2	59.7 (active)
BRCA1	2	57.6 (active)
BRCA1	3	63.6 (active)
BRCA1	3	72.7 (active)
PAK1	1	101
PAK1	2	99.6
PAK1	3	114
CDK3	1	106
CDK3	2	97.6
CDK3	3	107
SIN3A	1	59.2 (active)
SIN3A	2	57.1 (active)
SIN3A	3	72.5 (active)

Entries listed so far marked active:
gene	technical replicate	viability, normalised (%)
BRCA1	1	57.7 (active)
BRCA1	1	66.2 (active)
BRCA1	2	59.7 (active)
BRCA1	2	57.6 (active)
BRCA1	3	63.6 (active)
BRCA1	3	72.7 (active)
SIN3A	1	59.2 (active)
SIN3A	2	57.1 (active)
SIN3A	3	72.5 (active)

Additional results follow:
gene	technical replicate	viability, normalised (%)
MED18	1	64.4 (active)
MED18	2	64.7 (active)
MED18	3	68.8 (active)
PDK4	1	82.8
PDK4	2	69.4 (active)
PDK4	3	84.1
POLD4	1	69.3 (active)
POLD4	2	58.8 (active)
POLD4	3	70.9 (active)
ZMYND8	1	61.9 (active)
ZMYND8	2	68 (active)
ZMYND8	3	45.8 (active)
AIFM2	1	76.7 (active)
AIFM2	2	68.4 (active)
AIFM2	3	72.7 (active)
EXT1	1	66.2 (active)
EXT1	2	68.4 (active)
EXT1	3	78.7 (active)
HM13	1	86
HM13	2	99
HM13	3	69.1 (active)
TFAM	1	74.7 (active)
TFAM	2	76.5 (active)
TFAM	3	70.6 (active)
